# Some of the results follow.
# Amino acid sequences for entries named in this document (tags omitted). A change or cut given only in a name is not applied to a line headed by its entry.
# UniProt P20585: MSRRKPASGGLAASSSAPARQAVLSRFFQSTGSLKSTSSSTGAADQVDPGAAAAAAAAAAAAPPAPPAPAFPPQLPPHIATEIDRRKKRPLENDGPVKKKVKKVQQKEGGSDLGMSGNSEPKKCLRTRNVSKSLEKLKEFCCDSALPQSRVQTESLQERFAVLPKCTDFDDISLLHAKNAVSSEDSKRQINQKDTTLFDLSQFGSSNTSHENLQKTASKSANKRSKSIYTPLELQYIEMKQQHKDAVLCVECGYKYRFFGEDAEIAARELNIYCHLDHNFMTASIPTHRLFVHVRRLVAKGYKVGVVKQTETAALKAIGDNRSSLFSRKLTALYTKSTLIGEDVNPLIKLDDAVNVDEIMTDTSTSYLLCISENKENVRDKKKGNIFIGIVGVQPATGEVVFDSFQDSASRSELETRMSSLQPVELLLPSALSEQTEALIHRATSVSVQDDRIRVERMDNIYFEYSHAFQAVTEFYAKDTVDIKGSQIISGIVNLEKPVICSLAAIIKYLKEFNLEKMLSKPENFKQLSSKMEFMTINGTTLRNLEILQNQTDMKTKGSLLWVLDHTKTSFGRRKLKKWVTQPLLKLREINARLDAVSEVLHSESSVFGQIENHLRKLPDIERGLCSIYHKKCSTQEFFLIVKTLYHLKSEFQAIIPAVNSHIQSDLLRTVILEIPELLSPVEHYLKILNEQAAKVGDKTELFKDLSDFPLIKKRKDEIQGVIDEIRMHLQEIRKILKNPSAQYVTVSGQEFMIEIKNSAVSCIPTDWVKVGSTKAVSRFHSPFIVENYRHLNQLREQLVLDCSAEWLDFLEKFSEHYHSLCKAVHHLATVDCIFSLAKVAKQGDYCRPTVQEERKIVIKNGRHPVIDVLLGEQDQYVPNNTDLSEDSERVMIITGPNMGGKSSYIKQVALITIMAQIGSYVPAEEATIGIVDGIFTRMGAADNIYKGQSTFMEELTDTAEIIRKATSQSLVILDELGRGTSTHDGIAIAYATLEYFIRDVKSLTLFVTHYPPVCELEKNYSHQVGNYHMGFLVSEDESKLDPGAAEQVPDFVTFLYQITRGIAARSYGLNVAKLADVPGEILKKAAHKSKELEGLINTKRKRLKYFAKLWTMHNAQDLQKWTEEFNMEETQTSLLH
# Target: MSH3_P20585_1015_SLTLFVTHYPPVCELEK (UniProt P20585)
# Assay: probe-labelled cysteine peptide fold change vs DMSO (competition) (log2 fold change); higher = less target engagement (more negative = stronger competition)
# Details: THP-1, incubation time: 4 h
# 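Note: competitive profiling in live THP-1 cells: cysteine peptides tagged with an iodoacetamide desthiobiotin (IA-DTB) probe, intensity after compound treatment relative to DMSO-treated cells.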
smiles,measurement,setting,value
Cc1cc(C(=O)N2CCCN(C(=O)CCl)CC2)ccc1-c1ccccc1 [compound 10],probe-labelled cysteine peptide fold change,10 µM,0.185
same,probe-labelled cysteine peptide fold change,50 µM,0.331
